{"sequences": {"note": "Sequences of proteins named here, by UniProt entry; tags and fusion partners are left off. A change or cut given only in a name is not applied to a line headed by its entry.", "UniProt F8RG07": "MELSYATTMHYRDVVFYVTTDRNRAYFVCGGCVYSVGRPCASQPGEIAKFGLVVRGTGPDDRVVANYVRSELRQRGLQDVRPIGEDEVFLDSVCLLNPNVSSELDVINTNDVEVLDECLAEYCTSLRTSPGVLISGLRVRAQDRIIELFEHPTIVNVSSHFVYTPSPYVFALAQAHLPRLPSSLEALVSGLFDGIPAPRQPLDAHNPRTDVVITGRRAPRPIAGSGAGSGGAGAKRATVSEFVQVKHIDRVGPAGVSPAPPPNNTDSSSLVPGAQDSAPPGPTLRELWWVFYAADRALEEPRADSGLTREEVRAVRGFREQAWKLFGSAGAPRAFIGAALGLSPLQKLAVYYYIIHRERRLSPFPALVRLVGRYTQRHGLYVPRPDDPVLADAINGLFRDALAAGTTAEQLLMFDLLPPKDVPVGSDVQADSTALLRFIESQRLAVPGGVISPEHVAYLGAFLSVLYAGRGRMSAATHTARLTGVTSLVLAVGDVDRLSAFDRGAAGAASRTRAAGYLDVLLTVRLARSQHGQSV", "UniProt Q9Y5P4": "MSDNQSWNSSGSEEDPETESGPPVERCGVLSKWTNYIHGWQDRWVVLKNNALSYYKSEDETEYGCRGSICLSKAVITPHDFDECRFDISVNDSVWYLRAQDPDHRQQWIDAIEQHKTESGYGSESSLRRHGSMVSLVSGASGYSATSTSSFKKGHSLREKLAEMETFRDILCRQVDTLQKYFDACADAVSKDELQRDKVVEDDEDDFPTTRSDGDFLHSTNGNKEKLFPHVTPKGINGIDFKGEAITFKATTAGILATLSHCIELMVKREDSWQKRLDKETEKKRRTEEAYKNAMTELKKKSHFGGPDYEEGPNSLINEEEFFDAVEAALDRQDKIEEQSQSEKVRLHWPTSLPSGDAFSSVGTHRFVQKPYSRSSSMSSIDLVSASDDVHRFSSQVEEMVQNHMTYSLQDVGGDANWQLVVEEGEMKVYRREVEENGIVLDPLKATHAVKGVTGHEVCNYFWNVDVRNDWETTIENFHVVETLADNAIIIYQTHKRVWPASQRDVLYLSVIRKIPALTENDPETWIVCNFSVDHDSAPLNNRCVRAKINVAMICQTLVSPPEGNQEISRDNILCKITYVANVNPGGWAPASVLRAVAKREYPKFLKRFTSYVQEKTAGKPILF"}, "source": "paper PMC9668737", "molecular_target": "pUL21-GFP (WT) (herpes simplex virus 1 (HSV-1)) (UniProt F8RG07)", "experiment": "co-IP; HEK293T transfected with pUL21-GFP, point mutants or GFP alone, infected at 24 h with ΔpUL21 HSV-1 (MOI = 5), lysed at 16 hpi; GFP-Trap beads; lysis buffer 10 mM Tris pH 7.5, 150 mM NaCl, 0.5 mM EDTA, 0.5% NP-40; immunoblot", "note": "Results are given in words; binding and its absence hold for the method and conditions named. In cells and extracts the contact can be indirect. Binding calls can cover weak binding; strength is not graded here."}
{"substance": "CERT (endogenous, HEK293T) (from UniProt Q9Y5P4)", "values": [{"measurement": "binding", "result": "binds"}]}
